According to patent US12268683B2, “Compounds and methods for synergistic activation of M channels” (THE REGENTS OF THE UNIVERSITY OF CALIFORNIA, priority 2018, dated 2025):

Target: KCNQ1 (Homo sapiens, UniProt P51787)
Assay: TEVC of homomeric KCNQ1 expressed in Xenopus oocytes
Type: cell-based

CC(C)CC(=O)O [IVA, isovaleric acid]
effect on KCNQ1 (in words): IVA-insensitive
